This note sets out measurements from PubChem BioAssay AID1347426 (Functional Genomics Laboratory (NCATS/FGL), 2020).

Hit rate of the full screen: of about 31,000 sequences, about 1,400 (4.5%) were called active.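 The calls were made as follows: active = median seed-adjusted z-score above 1 or below -1; inactive = the rest.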 Some of the results follow.

The nature of the experiment: Novel Modifiers of Survival Motor Neuron (SMN) Protein: Gene Identification via Genome-wide siRNA Screen.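 Also: luminescence tracks full-length SMN protein made from the SMN2 reporter.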 Particulars: HEK293T SMN2-luciferase reporter, siRNA knockdown, 72 h; actives lie on both sides. The procedure, abridged: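 Luciferase signal, proportional to full-length SMN made from an SMN2 cDNA reporter in stable HEK293T cells, was read 72 h after siRNA reverse transfection. Values were expressed as MAD scores after non-targeting-control normalization and log10 conversion; seed analysis flagged off-targets.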
(In a reporter assay the amount or activity of a reporter protein is the signal.)
In the case of CCUCAUCACUCUUGUAGUATT against RAMP2, the median seed-adjusted z-score is inactive: 0.289.
As for CCUCCUCGCAGGUACAAAATT against EDA2R, the figure is inactive: 0.424; as for AAGCCGCUGUGAAAGGCUATT against MDH2, inactive: 0.185; as for GCCCUGCACUUUCUAGAGATT against PYCR2, inactive: 0.00371.
Next, AGACCAUCGCGGCUAAGAATT against DES: inactive: 0; AAAUGGGUGCAAAAAUACATT against CCL26: inactive: -0.01.
Next, GCUGGAAUAUUGUAAUGGATT against NEK9: inactive: 0.0698; GCUAAGAGCUUCGUGCUGATT against LGALS1: inactive: 0.033.
As to GGAGAUCUAUUCAAUGGGATT against SRPK1, the median seed-adjusted z-score was inactive: 0.37.
Next, CUGCGUUGUGCAUAACUUUTT against LPPR2: inactive: 0.255; GAAAGGCAGUUUUCGUAAATT against NXF3: inactive: 0.672.
As for GGCAGUACCUUCUUCAAGATT against FOXN3, the figure is inactive: -0.636.
Take GGUUACUCGUCAAACAUAUTT against ANGPT1: the median seed-adjusted z-score is inactive: 0.289.
For GGAGAACCAGUGGAAUUCATT against LIN28B, the median seed-adjusted z-score was inactive: 0.407.
Turning to GGCUCUAUAUGAUUACCAATT against HCLS1, the median seed-adjusted z-score was inactive: 0.107.
On to GGGACGAUCUUAACCACCATT against TRIM2, for which the median seed-adjusted z-score is inactive: -0.207.
As for GCCUUGGAAUUCGCUGUUATT against ZBTB12, the figure is inactive: 0.0993; as for GGUUCGUGUUUUAUUCGAATT against ATP9B, inactive: 0; as for GAGUUGAAGUUAAAGUAAATT against MORF4, inactive: 0.0121.
Next, AGUCGGAGCUGGUAAACUATT against TTC9B: inactive: -0.272; CCAUGACUCAGAUAGUUCATT against SLC39A6: inactive: -0.262.
Next, GGUCUAUACUGUCCGACAATT against SLC30A7: inactive: 0.0492.
Take CAUCUAAUGUCACUACCGATT against NDST3: the median seed-adjusted z-score is inactive: 0.476.
Next, ACAGGAACCUUUUAUGCUUTT against IRF4: inactive: -0.332; CUCUUAUGUUGGAUAUGUATT against USP14: inactive: 0; GUCACUUCAUUGAAAUUCATT against STYXL1: inactive: -0.311.
Next, GCCUCGACUUGUCUAUGGATT against PAPOLA: inactive: 0; GGCUUUCACCAGAUUCACATT against LYPLA1: inactive: 0; ACCUGGAGGGUGACUAUUATT against JAG2: inactive: -0.234.
Take CCAUUGCUAAUGUGCCUAUTT against SAR1B: the median seed-adjusted z-score was inactive: 0.693.
As for AAAUCAAGAUUCUUACUGATT against TPM3, the figure is inactive: 0.111; as for CUCUGAACCUGUCCCGAAATT against FLII, inactive: -0.353.
As for GACCGAUCCAUAUCUGAUATT against OPA1, the figure is inactive: -0.182; as for CGGUGGACGUGAGAGACUUTT against HSPB7, inactive: -0.288; as for GGCAGUUGGUUGUAGAAGATT against COL4A3BP, inactive: 0.0391.
Next, CCAAGGAGAUUUUAUGUCUTT against TRIM60: inactive: -0.201; GACGUGGAGUUGAUAAAGATT against DSC3: inactive: 0.18; AGAGAAUCCAGGAUCAGAATT against CHIT1: inactive: -0.578.
Consider GUGCGAAUGUUGCUGGUGATT against CCKBR, for which the median seed-adjusted z-score was inactive: 0.314.
As for GCAACAUCUGGAUCGUGAATT against TTLL3, the figure is inactive: -0.194; as for GCAGAAUGCGCUCAAGUCATT against HOXD13, inactive: 0.116; as for GCUUCACUUCCAACCCUUUTT against GPR61, inactive: 0.
As for GCUUUUAAUCGAUUCUCAUTT against ZNF431, the figure is inactive: 0.00537.
Next, GCUUCAGUCUGAGCCCAAATT against ZNF16: inactive: 0; CACACAUGCUCUCCCACAGTT against DUX1: inactive: -0.62.
Regarding GGAUAGAGAGUCGACAGAATT against HELLS, the median seed-adjusted z-score is inactive: 0.192.
GGACGAUACUCUGACCGUUTT against SFRS5: the median seed-adjusted z-score was inactive: 0.346.
Next, GCGAUGAAAAGAAAAGUCATT against TPO: inactive: 0.894; CCCUUAAUAGAGAGAGUUATT against AADAT: inactive: 0.0891; GCUUAUCUCGGCAAUCAAATT against PAPPA2: inactive: -0.173.
As to CAUCAUCAACAGGACCUAUTT against GDPD3, the median seed-adjusted z-score was inactive: -0.0754.
As for CACGAGCUAAAGUAAAAUATT against EGLN1, the figure is active: 2.05; as for CUCCAGCUCUGAUUGUAUATT against ABHD14B, inactive: -0.175; as for GGGUGAAGUCUCUCAAGAATT against LLGL1, active: -1.13.
As for GGAGAUAAAUGGACGCAAUTT against MBNL1, the figure is inactive: 0.658; as for GUACAACUCCCAUCCCUGATT against SLC5A9, inactive: 0.15; as for CUAAGGACCUCAUAGUUGATT against NUMB, inactive: -0.599.
On to GAGAGAAUGCUGAACUGGATT against KRT39, for which the median seed-adjusted z-score is inactive: 0.161.
As for GACUCUUAGUUUUUCAAAATT against ISL2, the figure is inactive: 0.392.
As for UGGACAAAGUAGCAUGUUATT against KLF11, the median seed-adjusted z-score is inactive: 0.158.
Next, GACUUUACCUUUGAGUACUTT against ZNF407: inactive: 0.00802; CCCUAUAAUCAGACAUUAATT against CTBS: inactive: 0.0442; CUCUAGUCGCGUCAAGUUUTT against NISCH: inactive: -0.0757.
As for UACACCAAAUGGAUCAAGATT against TESSP5, the figure is inactive: 0.
As for GCAUCGACCUGUCCUCCAATT against ELFN2, the figure is inactive: -0.0888; as for GGAAGUCUACUCUCCUUUATT against ARL14, inactive: 0.417.
With GCGGAGUACUUCAAGAACATT against SLC13A4, the median seed-adjusted z-score was inactive: 0.446.
As to GCACUACGGACCAUAGUUATT against NRF1, the median seed-adjusted z-score is inactive: 0.608.
As for GACCUUCACGACAAAGUAUTT against ALOXE3, the figure is inactive: -0.504.
